Experimental data: PubChem BioAssay AID1053208 (Peter MacCallum Cancer Centre, 2014)

- Screen: 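Genes whose silencing cuts survival of bone tumour cells only with doxorubicin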 (primary screen)
- Cells: mouse osteosarcoma cells, early-passage culture from an engineered mouse model of fibroblastic bone tumour
- Reagents: siRNA pool against mouse genes, 40 nM
- Timing: about 120 h (48 h before drug, then 72 h with drug)
- Treatment: doxorubicin 100 nM for 72 h, roughly 30-40% inhibitory dose
- Measured: 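Viability read as ATP luminescence after 72 h of 100 nM doxorubicin or none, duplicate wells averaged, scaled to non-targeting siRNA, then expressed as robust z-scores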
- Scale: viability z-score with doxorubicin and doxorubicin viability vs non-targeting: higher = more viable cells under doxorubicin; viability z-score without drug: higher = more viable cells with knock-down alone; z-score of drug to no-drug ratio: higher = less drug sensitisation by knock-down
- Call rule: 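Called active if knock-down leaves viability unchanged without drug (z within -2 to 2) but lowers it with doxorubicin (z at or under -2)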
The whole screen tested about 17,000 reagents; below is an unselected part. Over the whole deposit, 788 (4.7%) are marked active. 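Calls rest on z-score classes alone; an extra cut-off of viability at most 70% of control was not applied to them.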 Unmarked entries are inactive. The numbers tell different reagents against one gene apart. Reagent sequences are not shown.

combined z-score class,viability z-score with doxorubicin,viability z-score without drug,z-score of drug to no-drug ratio,doxorubicin viability vs non-targeting,gene,reagent
no change with or without drug,1.91,1.52,1.01,1.11,AW551984,1
high cell count with doxorubicin only,2.36,0.84,1.91,1.15,Stxbp3,1
no change with or without drug,0.34,-0.17,0.56,0.97,Il4i1,1
no change with or without drug,0.67,0.34,0.56,1,Ccdc77,1
high cell count with and without drug,2.36,2.19,0.9,1.15,Ifi27l2a,1
no change with or without drug,1.24,1.18,0.56,1.05,Henmt1,1
no change with or without drug,-0.22,-0.51,0.22,0.92,Kif18b,1
low cell count without drug only,-1.35,-2.53,0.45,0.82,Sgo1,1
low cell count with doxorubicin only (active),-2.59,0,-2.59,0.71,Wipf2,1
no change with or without drug,-0.22,0.84,-0.67,0.92,Fosb,1
no change with or without drug,-1.35,0.17,-1.46,0.82,Pigf,1
no change with or without drug,0.22,-0.84,1.01,0.96,Mrps35,1
no change with or without drug,-0.22,-0.84,0.45,0.92,Syt2,1
no change with or without drug,-0.45,0.67,-0.79,0.9,Alox12,1
no change with or without drug,0.34,-0.51,0.79,0.97,Sec13,1
no change with or without drug,0.11,0.67,-0.22,0.95,Glyr1,1

Just “viability z-score without drug”, for 2 of the entries above:
Pigf: 0.17
Mrps35: -0.84

Further records follow.
combined z-score class,viability z-score with doxorubicin,viability z-score without drug,z-score of drug to no-drug ratio,doxorubicin viability vs non-targeting,gene,reagent
no change with or without drug,0.56,0.84,0.11,0.99,Mia2,1
no change with or without drug,-0.45,0.84,-0.9,0.9,Mia2,2
no change with or without drug,1.12,0.17,1.12,1.04,Cry1,1
no change with or without drug,0.22,-0.84,1.01,0.96,Aph1b,1
no change with or without drug,1.12,0.67,0.79,1.04,Naglu,1
no change with or without drug,0.67,0.34,0.56,1,Pitpna,1
no change with or without drug,-0.56,0.17,-0.56,0.89,Noct,1
no change with or without drug,1.01,0.17,1.01,1.03,Gstm1,1
no change with or without drug,-0.34,-0.17,-0.11,0.91,Bckdk,1
no change with or without drug,0,0.51,-0.22,0.94,Zfp689,1
no change with or without drug,0.45,0.17,0.45,0.98,Baiap2l2,1
no change with or without drug,-0.22,0.17,-0.22,0.92,Rspo1,1
no change with or without drug,1.12,0.51,0.9,1.04,Nhsl1,1
no change with or without drug,0.22,0.51,0,0.96,Hdlbp,1
no change with or without drug,1.57,1.52,0.67,1.08,1110059E24Rik,1
no change with or without drug,0.45,1.35,-0.34,0.98,Gal3st2,1
no change with or without drug,-0.45,-0.17,-0.22,0.9,Golim4,1
low cell count with doxorubicin only (active),-2.59,-0.34,-2.47,0.71,Rnf128,1
